This is an account of results in the supplement of paper PMC12889115.

The structures appear in SMILES notation. Some of the results follow. Values are raw readings; no control value is given beside them.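 Primary screen: polymyxin B was added at a level permeabilizing Salmonella outer membranes while sparing inner membranes. DMSO wells, both with and without polymyxin B, established maximum growth. Plate-to-plate variation meant each plate was ranked on its own, and the lowest-OD600 compounds were selected as hits.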

The subject of the experiment is Salmonella enterica serovar Typhimurium SL1344. Description: bacterial growth OD600 after 18 h with compound and polymyxin B; higher = more bacterial growth (less inhibition). Particulars: 50 µM, Mueller-Hinton broth.

`CCC(C)CCNc1ccc(C(=O)N2CCCN(c3ncccn3)CC2)cn1` (stereo unspecified): the “bacterial growth OD600” value (polymyxin B 0.75 µg/mL) was 0.645.

Consider `Cc1cccc(N2CCN(C(=O)c3cn(CC(C)C)cc(C(=O)N4CCCCCC4)c3=O)CC2)c1C`, for which, for the setting “polymyxin B 0.75 µg/mL”, the “bacterial growth OD600” value turned out to be 0.792.

Turning to `CC(=O)c1cccc(OCc2cc(C(=O)N3CCCC(O)C3)n[nH]2)c1` (stereo unspecified), the “bacterial growth OD600” value (polymyxin B 1 µg/mL) stood at 0.93.

For `COc1ccccc1N1CCN(c2nc(CNC(=O)c3ccc(F)c(F)c3)nc3ccccc23)CC1`, where the note is “polymyxin B 0.75 µg/mL”, the “bacterial growth OD600” value turned out to be 0.799.

As to `Cc1ccc(-n2cc(CN3CCN(Cc4ccccc4F)C(CCO)C3)cn2)cc1` (stereo unspecified), the “bacterial growth OD600” value (polymyxin B 1 µg/mL) was 0.968.

Take `Cc1ccccc1N1CCN(C2CCCN(C(=O)c3ccc(F)cc3)C2)CC1` (stereo unspecified): the “bacterial growth OD600” value (polymyxin B 1 µg/mL) was 1.06.

As to `COc1cccc(OC)c1-c1cnnc(NCCc2nc(C)c3c(n2)CCC3)n1`, the “bacterial growth OD600” value (polymyxin B 1 µg/mL) was found to be 0.917.

On to `Cc1nnc(-c2cccc(NC(=O)C3CCCCN3C(=O)C3CCCCC3)c2)s1` (stereo unspecified), for which the “bacterial growth OD600” value (polymyxin B 1 µg/mL) was determined as 1.03.

As to `OCC1(Cc2ccccc2F)CCCN(Cc2c(F)ccc(F)c2F)C1` (stereo unspecified), the “bacterial growth OD600” value (polymyxin B 1 µg/mL) came to 0.055.

In the case of `CC(C)c1noc(-c2ccc(NC3CCSC3)nc2)n1` (stereo unspecified), the “bacterial growth OD600” value (polymyxin B 0.75 µg/mL) was determined as 0.836.

Regarding `CN(C)C1(CNC(=O)c2coc(COc3ccccc3)n2)CCCCC1`, the “bacterial growth OD600” value (polymyxin B 0.75 µg/mL) was 0.83.

For `CN(Cc1ccccc1)C(=O)c1nc2ccccn2c1CNCc1ccc(F)cc1F`, the “bacterial growth OD600” value (polymyxin B 1 µg/mL) worked out at 0.016.

Turning to `COCc1ccc(CN2CCCC(C(=O)c3cc(C)c(OC)c(C)c3)C2)o1` (stereo unspecified), the “bacterial growth OD600” value (polymyxin B 1 µg/mL) came to 0.759.

`COc1ccc(C(=O)NC(C)c2cnn(-c3ccccc3C)c2C)cc1` (stereo unspecified): the “bacterial growth OD600” value (polymyxin B 1 µg/mL) came out at 0.955.

For `Cc1cc(C)n(Cc2cc(C(=O)N(C)Cc3csc(C)n3)n[nH]2)n1`, the “bacterial growth OD600” value (polymyxin B 1 µg/mL) turned out to be 1.15.

As to `CC1(C)Cc2c(cnn2-c2ccccc2)C(NC2CCOCC2)C1` (stereo unspecified), the “bacterial growth OD600” value (polymyxin B 1 µg/mL) came to 0.963.

`COC(=O)CN(C)C(=O)CC1(c2ccccc2)CC(=O)N(CCCOc2cccnc2)C1=O` (stereo unspecified): the “bacterial growth OD600” value (polymyxin B 0.75 µg/mL) was 0.913.

Take `CCOC(=O)C1(C/C=C/c2ccccc2)CCCN(C(=O)CCn2ccc(C)n2)C1` (stereo unspecified): for the setting “polymyxin B 1 µg/mL”, the “bacterial growth OD600” value came out at 0.025.

Regarding `CCc1csc(CNC(=O)c2ccc(NC3CCC3)nc2)n1`, the “bacterial growth OD600” value (polymyxin B 1 µg/mL) came out at 0.805.

For the compound `CSc1ccc(C(=O)NCc2nc(-c3ccc(NC(=O)Cc4ccccc4)cc3)oc2C)cc1`, where the note is “polymyxin B 0.75 µg/mL”, the “bacterial growth OD600” value was found to be 0.862.

For the compound `CCCn1ncc(CN2CCN(Cc3ccccc3OCC)C(CCO)C2)c1C` (stereo unspecified), the “bacterial growth OD600” value (polymyxin B 1 µg/mL) was 1.01.
